No constants are given. Whether binding was seen depends on the method and setting. Binding seen in cells or lysates may run through a third protein. Some binding calls cover weakened binding; strength is not graded here.

Protein sequences, listed by entry. Tags and fused reporters are not part of them. Lines headed by an entry give the natural chain unless they say otherwise; changes in a name come on top. Chains listed by the source or under a name are the forms on record and can include a tag or linker. Residues count along the entry.
UniProt Q13263: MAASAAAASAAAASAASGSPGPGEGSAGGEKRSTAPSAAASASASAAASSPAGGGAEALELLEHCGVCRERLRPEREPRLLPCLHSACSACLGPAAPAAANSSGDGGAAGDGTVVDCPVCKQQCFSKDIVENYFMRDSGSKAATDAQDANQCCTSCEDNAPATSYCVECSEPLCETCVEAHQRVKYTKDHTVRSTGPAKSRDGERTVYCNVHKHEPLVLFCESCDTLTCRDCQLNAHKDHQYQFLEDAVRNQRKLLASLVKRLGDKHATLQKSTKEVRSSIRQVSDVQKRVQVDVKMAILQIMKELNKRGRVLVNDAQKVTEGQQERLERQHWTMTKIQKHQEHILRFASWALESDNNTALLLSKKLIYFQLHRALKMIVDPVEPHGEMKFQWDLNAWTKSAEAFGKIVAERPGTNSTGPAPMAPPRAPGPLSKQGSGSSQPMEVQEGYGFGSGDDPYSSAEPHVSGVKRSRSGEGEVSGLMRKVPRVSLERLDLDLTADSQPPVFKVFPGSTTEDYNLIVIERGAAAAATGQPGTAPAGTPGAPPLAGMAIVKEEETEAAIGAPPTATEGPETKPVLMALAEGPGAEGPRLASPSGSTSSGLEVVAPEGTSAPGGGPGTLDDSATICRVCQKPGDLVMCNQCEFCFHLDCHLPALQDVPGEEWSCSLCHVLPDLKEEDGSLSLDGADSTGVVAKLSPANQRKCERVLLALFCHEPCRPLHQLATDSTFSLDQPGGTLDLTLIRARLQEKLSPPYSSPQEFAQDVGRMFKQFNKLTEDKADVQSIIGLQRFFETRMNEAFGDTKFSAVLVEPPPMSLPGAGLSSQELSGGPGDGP
UniProt Q6NUN9, residues 1-108: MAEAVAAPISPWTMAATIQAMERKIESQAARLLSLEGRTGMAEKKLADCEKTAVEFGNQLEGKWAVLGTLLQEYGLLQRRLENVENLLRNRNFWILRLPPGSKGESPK
GST-ZNF746b/1–188 (A0A2R8YDQ5, form named): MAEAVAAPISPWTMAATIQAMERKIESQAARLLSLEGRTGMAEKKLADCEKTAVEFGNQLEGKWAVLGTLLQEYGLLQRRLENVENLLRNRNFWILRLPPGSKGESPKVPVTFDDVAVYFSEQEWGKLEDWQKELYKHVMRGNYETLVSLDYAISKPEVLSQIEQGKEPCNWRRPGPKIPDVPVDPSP
GST-ZNF746b/109–188 (A0A2R8YDQ5, form named): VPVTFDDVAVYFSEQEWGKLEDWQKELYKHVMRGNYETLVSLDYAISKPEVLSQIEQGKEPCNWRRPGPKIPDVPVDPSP
GST-ZNF746b/109–188 G142E (A0A2R8YDQ5, form named): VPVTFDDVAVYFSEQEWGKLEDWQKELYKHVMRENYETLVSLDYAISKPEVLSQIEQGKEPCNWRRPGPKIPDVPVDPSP
GST-ZNF746b/109–188 R141L (A0A2R8YDQ5, form named): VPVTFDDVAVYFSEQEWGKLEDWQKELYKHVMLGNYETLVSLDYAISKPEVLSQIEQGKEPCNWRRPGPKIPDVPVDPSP
GST-ZNF746b/109–188 RG141,142LE (A0A2R8YDQ5, form named): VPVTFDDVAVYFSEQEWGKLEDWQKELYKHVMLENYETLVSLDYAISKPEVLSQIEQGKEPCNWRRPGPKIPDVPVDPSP
GST-ZNF746b/109–294 (A0A2R8YDQ5, form named): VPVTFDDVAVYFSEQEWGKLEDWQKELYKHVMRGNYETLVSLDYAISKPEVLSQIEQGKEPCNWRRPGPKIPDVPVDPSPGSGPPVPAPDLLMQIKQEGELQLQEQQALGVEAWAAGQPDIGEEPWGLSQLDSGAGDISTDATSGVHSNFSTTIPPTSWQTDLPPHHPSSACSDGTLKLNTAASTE

In experiment [1] the target is TRIM28 (endogenous) (human (endogenous in HeLa)) (UniProt Q13263). Briefly: co-IP; HeLa cells transiently expressing GST fusions; endogenous TRIM28 as bait, precipitated with mAb 1Tb1A9 on protein G Mag-Sepharose; TST buffer, overnight at 4 °C; Western blot with anti-TRIM28 and anti-GST. (In general: A western blot detects proteins with antibodies after separation by electrophoresis.)

Experiment [2] deals with ZNF746a/1–108 (GST- or His-tagged, from E. coli) (human) (UniProt Q6NUN9). Briefly: pull-down; crude E. coli extracts with recombinant His-tagged and GST- or MBP-fusion proteins mixed in vitro; Ni-NTA magnetic beads pull down the His-tagged protein; 50 mM TRIS/HCl pH 8, 300 mM NaCl, 20 mM imidazole, 0.05% Tween20, overnight at 4 °C.
Experiment [3] has as its target ZNF746a/1–108 (OST- or GST-tagged, in HeLa) (human) (UniProt Q6NUN9). Briefly: pull-down; HeLa cells co-transfected with GST-fusion and OST-fusion constructs; Strep-Tactin pull-down via the OST-tagged protein; blots with anti-GST and anti-OST.

As to “GST-ZNF746b/1–188 (from UniProt A0A2R8YDQ5 1-188) (domain or fragment)”, the binding result in experiment [1] was “binds”.

With “GST-ZNF746b/109–188 (from UniProt A0A2R8YDQ5 109-188) (domain or fragment)”, in experiment [1], the binding result is “binds weakly”.

As for “GST-ZNF746b/109–188 G142E (from UniProt A0A2R8YDQ5 109-188) (domain or fragment)”, the binding result in experiment [1] was “binds”.

As for “GST-ZNF746b/109–188 R141L (from UniProt A0A2R8YDQ5 109-188) (domain or fragment)”, in experiment [1], the binding entry is “binds weakly”.

Consider “GST-ZNF746b/109–188 RG141,142LE (from UniProt A0A2R8YDQ5 109-188) (domain or fragment)”, for which the binding result in experiment [1] is listed as “binds”.

In the case of “GST-ZNF746b/109–294 (from UniProt A0A2R8YDQ5 109-294) (domain or fragment)”, the binding result in experiment [1] is recorded as “binds”.

Consider “ZNF746a/1–108 (GST- or His-tagged, from E. coli) (from UniProt Q6NUN9 1-108) (domain or fragment)”, for which the binding result in experiment [2] was “binds”.

Turning to “ZNF746a/1–108 (OST- or GST-tagged, in HeLa) (from UniProt Q6NUN9 1-108) (domain or fragment)”, in experiment [3], the binding result is “binds”.
